Reference: patent US20250109127A1, “METHODS OF USE OF PHENOXYPROPYLAMINE COMPOUNDS TO TREAT DEPRESSION” (Minerva Neurosciences, Inc., priority 2013, published 2025)
Several values for one entry are separate records, joined by “and”; a condition that tells them apart may be missing. Identical values can stand only once. Counter-ions that a name gives are not always drawn. This continues a long series; more values of the same kind are listed elsewhere.

System: DOPAC release in the rat prefrontal cortex
Assay: Microdialysis: DOPAC release in prefrontal cortex after I.P. administration
Type: in vivo
Conditions: hydrochloride
Protocol: The aim of the study was to evaluate, using microdialysis, the effects of an intraperitoneal (I.P.) administration in rats of three different doses of SON-117 on dopamine and its metabolites, serotonin and its metabolite (5-HIAA), and norepinephrine levels in prefrontal cortex.
Thirty-two adult male Wistar rats were used for the whole study (4 groups of eight animals planned for the study, Table 1).
Surgery was performed on rats weighing about 300 g at the beginning of the experiments. Rats were anaesthetized with Ketamine (50 mg/kg) & Xylazine (15 mg/kg) by intramuscular administration. The animals were placed in a stereotaxic apparatus in the flat-skull position at a constant setting of −3.3 mm between ear bars and the incisor bar. The animals were treated with a local anesthesic (xylocaine 1%, Astra Zeneca) and an analgesic (Temgesic, from Schering Plough, 0.05 mg/kg, s.c.). A rostrocaudal midline incision was made with a lancet to expose the dorsal skull surface. The “stereotaxic zero” was defined by the Bregma in accordance with Paxinos and Watson's atlas (1986). A hole was drilled in the skull with a drill and the meninges were pierced with a sterile needle to implant a CMA12 guide cannula which later received the dialysis probe.
Coordinates used for implanting guide cannula in prefrontal cortex from Bregma were anteroposterior 3.7 mm, mediolateral 0.8 mm, and dorsoventral −2 mm (top of the probe was at −5 mm). The guide cannula was fixed to the skull with two stainless steel screws (1.88 mm outside diameter) anchored. An application of dental cement was added. A plastic collar allowed each animal to be tethered to a Swivel assembly of the CMA 120 awake animal system. Following surgery, rats were kept in individual cages and allowed to recover for a minimum of 3-5 days before the experimentation. The rats were handled and put in plastic bowl for 10 min at least every day to habituate the animals to their new environment for the dialysis. An I.P. administration with saline was also performed every day.
Dialysis probes (CMA12/3 mm, membrane, 20 kD cut-off, Carnegie Medicine, Stockholm, Sweden), were carefully washed before inserting into the guide cannula. The wash was performed with the artificial cerebrospinal fluid (aCSF) medium (NaCl 147 mM, KCl 2.7 mM, CaCl2 1.2 mM, MgCl2 0.85 mM) at room temperature. The dialysis system was then equilibrated at 20° C. at a perfusion rate of 1 μl/min with a Carnegie pump (CMA100). All catheters (FEP tubing, internal volume of 1.2 μl/10 cm, and tubing adaptors) used for microdialysis were treated in the same conditions.
The probes duly prepared were inserted into the guide cannula and the CMA120 Swivel assembly secured to the animal using a plastic collar. Flow through the dialysis probe with aCSF was maintained at a rate of 1 μl/min during the whole experimentation. The first four fractions (corresponding to 2 hours) were discarded to avoid the effects of parenchymal disturbance and to ensure that an approximate steady-state level was reached. Fractions were then collected over a period of 8.5 h during which time the animals remained quiet. The dialysates were automatically collected with an autosampler (microfraction collector CMA 140, Carnegie Medicin) and stored at −80° C. until analysis. […] Perfusion was then maintained for 7 hours with aCSF. The dialysates (30 μl) were collected into 300 μl vials, transferred into dry ice and then kept frozen (−80° C.) until analysis. Frozen samples were shipped to a partner for analysis. At the end of the microdialysis study, a PBS with colored ink was perfused through the probe in order to visualize the dialyzed area.
Catecholamine assay: Concentrations of dopamine, DOPAC, HVA, 5-HIAA, 5-HT, and norepinephrin were determined for each sample by HPLC coupled with electrochemical detection.

Compound: Cc1nnc(-c2cc3c(OC[C@@H](O)CN4CCC(c5ccc(Cl)c(Cl)c5)CC4)cccc3o2)o1 [SON-117, (S)-1-(4-(3,4-dichlorophenyl)piperidino)-3-(2-(5-methyl-1,3,4-oxadiazol-2-yl)benzo(b)furan-4-yloxy)-2-propanol hydrochloride]
- DOPAC (% of respective basal), individual animal (0.1 mg/kg I.P., T0-T30 min, c2-c9 = R#13,14,20,19,25,26,31,32): 84.64 % of respective basal and 90.8 % of respective basal and 75.40 % of respective basal and 81.08 % of respective basal and 76.10 % of respective basal and 82.04 % of respective basal
- DOPAC (% of respective basal), individual animal (0.1 mg/kg I.P., T6 h 30-T7 h, c2-c9 = R#13,14,20,19,25,26,31,32): 140.41 % of respective basal and 97.01 % of respective basal and 134.95 % of respective basal and 45.66 % of respective basal
- DOPAC (% of respective basal), individual animal (0.1 mg/kg I.P., T-30 min-T0 (before administration), c2-c9 = R#13,14,20,19,25,26,31,32): 81.22 % of respective basal and 101.50 % of respective basal and 94.05 % of respective basal and 96.94 % of respective basal and 92.84 % of respective basal and 98.39 % of respective basal and 76.08 % of respective basal and 85.53 % of respective basal
- DOPAC (% of respective basal), individual animal (0.1 mg/kg I.P., T-1 h 30-T-1 h (before administration), c2-c9 = R#13,14,20,19,25,26,31,32): 129.17 % of respective basal and 100.00 % of respective basal and 105.59 % of respective basal and 107.21 % of respective basal and 105.12 % of respective basal and 93.24 % of respective basal and 117.28 % of respective basal and 115.83 % of respective basal
- DOPAC (% of respective basal), individual animal (0.1 mg/kg I.P., T-1 h-T-30 min (before administration), c2-c9 = R#13,14,20,19,25,26,31,32): 89.54 % of respective basal and 102.68 % of respective basal and 100.36 % of respective basal and 95.94 % of respective basal and 102.04 % of respective basal and 108.38 % of respective basal and 106.62 % of respective basal and 98.63 % of respective basal
- DOPAC (% of respective basal), individual animal (0.3 mg/kg I.P., T0-T30 min, c2-c9 = R#11,12,18,23,29,30,17,24): 85.09 % of respective basal and 80.10 % of respective basal and 92.27 % of respective basal and 85.69 % of respective basal and 85.41 % of respective basal and 88.08 % of respective basal and 86.57 % of respective basal and 85.64 % of respective basal
- DOPAC (% of respective basal), individual animal (0.3 mg/kg I.P., T30-T1 h, c2-c9 = R#11,12,18,23,29,30,17,24): 85.58 % of respective basal and 74.71 % of respective basal and 87.18 % of respective basal and 93.82 % of respective basal and 86.64 % of respective basal and 78.70 % of respective basal and 84.26 % of respective basal and 83.69 % of respective basal
- DOPAC (% of respective basal), individual animal (0.3 mg/kg I.P., T1 h 30-T2 h, c2-c9 = R#11,12,18,23,29,30,17,24): 87.35 % of respective basal and 114.57 % of respective basal and 107.81 % of respective basal and 96.27 % of respective basal and 90.51 % of respective basal and 51.10 % of respective basal and 190.48 % of respective basal and 79.29 % of respective basal
- DOPAC (% of respective basal), individual animal (0.3 mg/kg I.P., T1 h-T1 h 30, c2-c9 = R#11,12,18,23,29,30,17,24): 98.25 % of respective basal and 77.65 % of respective basal and 100.07 % of respective basal and 119.82 % of respective basal and 100.62 % of respective basal and 81.54 % of respective basal and 73.52 % of respective basal and 99.76 % of respective basal
- DOPAC (% of respective basal), individual animal (0.3 mg/kg I.P., T2 h 30-T3 h, c2-c9 = R#11,12,18,23,29,30,17,24): 76.55 % of respective basal and 75.99 % of respective basal and 85.84 % of respective basal and 96.38 % of respective basal and 83.69 % of respective basal and 85.18 % of respective basal and 85.42 % of respective basal and 81.06 % of respective basal
- DOPAC (% of respective basal), individual animal (0.3 mg/kg I.P., T2 h-T2 h 30, c2-c9 = R#11,12,18,23,29,30,17,24): 66.65 % of respective basal and 83.61 % of respective basal and 92.00 % of respective basal and 86.82 % of respective basal and 82.67 % of respective basal and 85.40 % of respective basal and 85.77 % of respective basal and 72.98 % of respective basal
- DOPAC (% of respective basal), individual animal (0.3 mg/kg I.P., T3 h 30-T4 h, c2-c9 = R#11,12,18,23,29,30,17,24): 89.58 % of respective basal and 80.38 % of respective basal and 137.29 % of respective basal and 79.66 % of respective basal and 97.63 % of respective basal and 77.03 % of respective basal and 99.67 % of respective basal
- DOPAC (% of respective basal), individual animal (0.3 mg/kg I.P., T3 h-T3 h 30, c2-c9 = R#11,12,18,23,29,30,17,24): 85.17 % of respective basal and 87.70 % of respective basal and 87.86 % of respective basal and 71.48 % of respective basal and 91.76 % of respective basal and 88.62 % of respective basal and 73.02 % of respective basal
- DOPAC (% of respective basal), individual animal (0.3 mg/kg I.P., T4 h 30-T5 h, c2-c9 = R#11,12,18,23,29,30,17,24): 96.62 % of respective basal and 146.30 % of respective basal and 83.52 % of respective basal and 95.49 % of respective basal and 71.70 % of respective basal and 75.77 % of respective basal and 202.20 % of respective basal and 86.78 % of respective basal
- DOPAC (% of respective basal), individual animal (0.3 mg/kg I.P., T4 h-T4 h 30, c2-c9 = R#11,12,18,23,29,30,17,24): 110.76 % of respective basal and 90.58 % of respective basal and 82.07 % of respective basal and 109.53 % of respective basal and 101.69 % of respective basal and 85.15 % of respective basal and 91.12 % of respective basal and 83.07 % of respective basal
- DOPAC (% of respective basal), individual animal (0.3 mg/kg I.P., T5 h 30-T6 h, c2-c9 = R#11,12,18,23,29,30,17,24): 89.75 % of respective basal and 107.44 % of respective basal and 79.72 % of respective basal and 93.76 % of respective basal and 75.54 % of respective basal and 76.87 % of respective basal and 91.42 % of respective basal and 94.90 % of respective basal
- DOPAC (% of respective basal), individual animal (0.3 mg/kg I.P., T5 h-T5 h 30, c2-c9 = R#11,12,18,23,29,30,17,24): 43.91 % of respective basal and 74.34 % of respective basal and 91.63 % of respective basal and 88.32 % of respective basal and 75.80 % of respective basal and 83.53 % of respective basal and 101.20 % of respective basal and 80.44 % of respective basal
- DOPAC (% of respective basal), individual animal (0.3 mg/kg I.P., T6 h 30-T7 h, c2-c9 = R#11,12,18,23,29,30,17,24): 78.25 % of respective basal and 118.73 % of respective basal and 87.14 % of respective basal and 129.40 % of respective basal and 80.10 % of respective basal and 82.91 % of respective basal and 104.34 % of respective basal and 94.82 % of respective basal
- DOPAC (% of respective basal), individual animal (0.3 mg/kg I.P., T6 h-T6 h 30, c2-c9 = R#11,12,18,23,29,30,17,24): 83.76 % of respective basal and 110.08 % of respective basal and 82.62 % of respective basal and 114.80 % of respective basal and 86.77 % of respective basal and 87.31 % of respective basal and 94.36 % of respective basal and 118.84 % of respective basal
- DOPAC (% of respective basal), individual animal (0.3 mg/kg I.P., T-30 min-T0 (before administration), c2-c9 = R#11,12,18,23,29,30,17,24): 92.03 % of respective basal and 92.17 % of respective basal and 94.06 % of respective basal and 84.92 % of respective basal and 100.16 % of respective basal and 98.43 % of respective basal and 89.23 % of respective basal and 91.73 % of respective basal
- DOPAC (% of respective basal), individual animal (0.3 mg/kg I.P., T-1 h 30-T-1 h (before administration), c2-c9 = R#11,12,18,23,29,30,17,24): 100.35 % of respective basal and 108.62 % of respective basal and 103.45 % of respective basal and 113.40 % of respective basal and 93.25 % of respective basal and 103.88 % of respective basal and 96.73 % of respective basal and 114.26 % of respective basal
